# The list shows only some results of the screen, not a fair sample: it is rich in T/C values a quarter to a half above the control, in often repeated tests (any T/C) and in doses without a T/C. Further doses and runs are listed elsewhere. T/C gives the treated animals as a percentage of the vehicle group. Some doses have a count of surviving animals in place of a T/C: the source files T/C as zero there, which appears to mark a toxic dose or a test without result, not a measured value. Some survivor counts are full or nearly so, which does not show that the dose was tolerated: survival well below the control is almost never listed, so the zero probably covers shortened survival too. Survivors were counted at the toxicity check, usually on the fifth day, unless a day is given; later deaths do not show. Schedule codes are those of the source, taken here to give the interval after Q, in days (D) or hours (H), and the number of doses after X. Some entries were tested several times; the values are given in rising order. Where survival is the endpoint, the PubChem record calls one and a half times the control and up active, and a quarter to a half above the control has no call in these data; cut-offs in other NCI protocols can differ. Some T/C values carry the count of animals alive at the toxicity check (mostly the fifth day); where none is given, no animal had died by that day.
# Tested on: CD2F1 mice, L1210 leukemia ip, survival T/C
# Experiment: NCI In Vivo Anticancer Drug Screen. Data for tumor model L1210 Leukemia (intraperitoneal) in CD2F1 (CDF1) mice
# Conditions: higher T/C = longer survival
# How it was run: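 Implant tumor; dose compound or vehicle; measure endpoint in both groups; report treated divided by control.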
smiles,measurement,setting,value
S=P(N1CC1)(N1CC1)N1CC1,T/C,"T/C endpoint: mean survival time, dose: 1.0 mg/kg/injection, schedule: Q03HX024 (ip), vehicle: saline",140 % of control
same,T/C,"T/C endpoint: mean survival time, dose: 2.0 mg/kg/injection, schedule: Q01DX007 (ip), vehicle: saline",128 % of control
same,T/C,"T/C endpoint: mean survival time, dose: 2.0 mg/kg/injection, schedule: Q01DX009 (sc), vehicle: saline",127 % of control
same,T/C,"T/C endpoint: mean survival time, dose: 3.0 mg/kg/injection, schedule: Q01DX009 (ip), vehicle: saline",138 % of control
same,T/C,"T/C endpoint: mean survival time, dose: 4.0 mg/kg/injection, schedule: Q01DX005 (iv), vehicle: saline",134 % of control
same,T/C,"T/C endpoint: mean survival time, dose: 4.0 mg/kg/injection, schedule: Q01DX009 (sc), vehicle: saline",148 % of control
same,T/C,"T/C endpoint: mean survival time, dose: 4.0 mg/kg/injection, schedule: Q03DX003 (ip), vehicle: saline",128 % of control
same,survivor count,"T/C endpoint: mean survival time, dose: 4.0 mg/kg/injection, schedule: Q03HX008 (ip), vehicle: saline",7 of 10
same,survivor count,"T/C endpoint: mean survival time, dose: 4.0 mg/kg/injection, schedule: Q03HX016 (ip), vehicle: saline",9 of 10
same,survivor count,"T/C endpoint: mean survival time, dose: 4.0 mg/kg/injection, schedule: Q03HX024 (ip), vehicle: saline",8 of 10
same,T/C,"T/C endpoint: mean survival time, dose: 4.0 mg/kg/injection, schedule: Q04DX003 (ip), vehicle: saline",140 % of control
same,T/C,"T/C endpoint: mean survival time, dose: 5.0 mg/kg/injection, schedule: Q04DX003 (ip), vehicle: saline",133 % of control
same,T/C,"T/C endpoint: mean survival time, dose: 6.0 mg/kg/injection, schedule: Q01DX009 (ip), vehicle: saline",128 % of control
same,T/C,"T/C endpoint: mean survival time, dose: 8.0 mg/kg/injection, schedule: Q01DX001 (iv), vehicle: saline",128 % of control
same,T/C,"T/C endpoint: mean survival time, dose: 8.0 mg/kg/injection, schedule: Q01DX005 (iv), vehicle: saline",148 % of control
same,T/C,"T/C endpoint: mean survival time, dose: 8.0 mg/kg/injection, schedule: Q01DX009 (oral), vehicle: saline",148 % of control
same,survivor count,"T/C endpoint: mean survival time, dose: 8.0 mg/kg/injection, schedule: Q03HX008 (ip), vehicle: saline",2 of 10
same,survivor count,"T/C endpoint: mean survival time, dose: 8.0 mg/kg/injection, schedule: Q03HX016 (ip), vehicle: saline",5 of 10
same,survivor count,"T/C endpoint: mean survival time, dose: 8.0 mg/kg/injection, schedule: Q03HX024 (ip), vehicle: saline",6 of 10
same,T/C,"T/C endpoint: mean survival time, dose: 10.0 mg/kg/injection, schedule: Q01DX001 (ip), vehicle: saline",130 % of control
same,T/C,"T/C endpoint: mean survival time, dose: 11.0 mg/kg/injection, schedule: Q01DX001 (ip), vehicle: saline","136, 142, 147 % of control"
same,survivor count,"T/C endpoint: mean survival time, dose: 12.0 mg/kg/injection, schedule: Q01DX009 (ip), vehicle: saline",10 of 10
same,T/C,"T/C endpoint: mean survival time, dose: 15.7 mg/kg/injection, schedule: Q01DX001 (ip), vehicle: saline with Tween-80",137 % of control
same,T/C,"T/C endpoint: mean survival time, dose: 15.7 mg/kg/injection, schedule: Q01DX001 (ip), vehicle: saline",133 and 149 % of control
same,T/C,"T/C endpoint: mean survival time, dose: 16.0 mg/kg/injection, schedule: Q01DX001 (oral), vehicle: saline",147 % of control
same,T/C,"T/C endpoint: mean survival time, dose: 16.0 mg/kg/injection, schedule: Q01DX001 (sc), vehicle: saline",144 % of control
same,survivor count,"T/C endpoint: mean survival time, dose: 16.0 mg/kg/injection, schedule: Q01DX005 (iv), vehicle: saline",10 of 10
same,survivor count,"T/C endpoint: mean survival time, dose: 16.0 mg/kg/injection, schedule: Q01DX009 (ip), vehicle: saline",9 of 10
same,survivor count,"T/C endpoint: mean survival time, dose: 16.0 mg/kg/injection, schedule: Q01DX009 (sc), vehicle: saline",10 of 10
same,T/C,"T/C endpoint: mean survival time, dose: 16.0 mg/kg/injection, schedule: Q08DX002 (ip), vehicle: saline",130 % of control [9 of 10 alive]
same,T/C,"T/C endpoint: mean survival time, dose: 17.0 mg/kg/injection, schedule: Q01DX001 (ip), vehicle: saline","157, 167, 222 % of control"
same,survivor count,"T/C endpoint: mean survival time, dose: 24.0 mg/kg/injection, schedule: Q01DX001 (ip), vehicle: saline",2 of 6
same,survivor count,"T/C endpoint: mean survival time, dose: 24.0 mg/kg/injection, schedule: Q01DX009 (ip), vehicle: saline",8 of 10
same,T/C,"T/C endpoint: mean survival time, dose: 25.0 mg/kg/injection, schedule: Q01DX001 (ip), vehicle: saline","161, 262, 296 % of control"
same,survivor count,"T/C endpoint: mean survival time, dose: 32.0 mg/kg/injection, schedule: Q01DX001 (ip), vehicle: saline",2 of 10 and 4 of 6
same,survivor count,"T/C endpoint: mean survival time, dose: 32.0 mg/kg/injection, schedule: Q01DX001 (iv), vehicle: saline",6 of 10
same,survivor count,"T/C endpoint: mean survival time, dose: 32.0 mg/kg/injection, schedule: Q01DX001 (sc), vehicle: saline",5 of 10
same,survivor count,"T/C endpoint: mean survival time, dose: 32.0 mg/kg/injection, schedule: Q01DX009 (oral), vehicle: saline",9 of 10
same,survivor count,"T/C endpoint: mean survival time, dose: 32.0 mg/kg/injection, schedule: Q04DX003 (ip), vehicle: saline",3 of 10
same,survivor count,"T/C endpoint: mean survival time, dose: 32.0 mg/kg/injection, schedule: Q08DX002 (ip), vehicle: saline",2 of 10
same,survivor count,"T/C endpoint: mean survival time, dose: 48.0 mg/kg/injection, schedule: Q01DX001 (ip), vehicle: saline",1 of 6
same,survivor count,"T/C endpoint: mean survival time, dose: 64.0 mg/kg/injection, schedule: Q01DX001 (ip), vehicle: saline",0 of 10
same,survivor count,"T/C endpoint: mean survival time, dose: 64.0 mg/kg/injection, schedule: Q01DX001 (iv), vehicle: saline",5 of 10
same,survivor count,"T/C endpoint: mean survival time, dose: 64.0 mg/kg/injection, schedule: Q01DX001 (oral), vehicle: saline",3 of 10
same,survivor count,"T/C endpoint: mean survival time, dose: 64.0 mg/kg/injection, schedule: Q01DX001 (sc), vehicle: saline",3 of 10
same,survivor count,"T/C endpoint: mean survival time, dose: 64.0 mg/kg/injection, schedule: Q01DX009 (oral), vehicle: saline",3 of 10
same,survivor count,"T/C endpoint: mean survival time, dose: 64.0 mg/kg/injection, schedule: Q04DX003 (ip), vehicle: saline",0 of 10
same,survivor count,"T/C endpoint: mean survival time, dose: 64.0 mg/kg/injection, schedule: Q08DX002 (ip), vehicle: saline",1 of 10
same,survivor count,"T/C endpoint: mean survival time, dose: 96.0 mg/kg/injection, schedule: Q01DX001 (ip), vehicle: saline",3 of 6
same,survivor count,"T/C endpoint: mean survival time, dose: 128.0 mg/kg/injection, schedule: Q01DX001 (oral), vehicle: saline",2 of 10
same,survivor count,"T/C endpoint: mean survival time, dose: 256.0 mg/kg/injection, schedule: Q01DX001 (oral), vehicle: saline",4 of 10
same,T/C,"T/C endpoint: median survival time, dose: 1.0 mg/kg/injection, schedule: Q01DX009 (ip), vehicle: water, evaluated on day 5",96 and 107 % of control
same,T/C,"T/C endpoint: median survival time, dose: 1.0 mg/kg/injection, schedule: Q01DX009 (ip), vehicle: water, evaluated on day 23",96 % of control
same,T/C,"T/C endpoint: median survival time, dose: 1.0 mg/kg/injection, schedule: Q01DX009 (ip), vehicle: water, evaluated on day 30",107 % of control
same,T/C,"T/C endpoint: median survival time, dose: 1.56 mg/kg/injection, schedule: Q01DX009 (ip), vehicle: saline",128 % of control
same,T/C,"T/C endpoint: median survival time, dose: 2.0 mg/kg/injection, schedule: Q01DX009 (ip), vehicle: water, evaluated on day 5",97 and 133 % of control
same,T/C,"T/C endpoint: median survival time, dose: 2.0 mg/kg/injection, schedule: Q01DX009 (ip), vehicle: water, evaluated on day 23",97 % of control
same,T/C,"T/C endpoint: median survival time, dose: 2.0 mg/kg/injection, schedule: Q01DX009 (ip), vehicle: water, evaluated on day 30",133 % of control
same,T/C,"T/C endpoint: median survival time, dose: 4.0 mg/kg/injection, schedule: Q01DX009 (ip), vehicle: water, evaluated on day 5",97 and 166 % of control
same,T/C,"T/C endpoint: median survival time, dose: 4.0 mg/kg/injection, schedule: Q01DX009 (ip), vehicle: water, evaluated on day 23",97 % of control
same,T/C,"T/C endpoint: median survival time, dose: 4.0 mg/kg/injection, schedule: Q01DX009 (ip), vehicle: water, evaluated on day 30",166 % of control [7 of 8 alive]
same,T/C,"T/C endpoint: median survival time, dose: 6.25 mg/kg/injection, schedule: Q01DX009 (ip), vehicle: saline",141 and 142 % of control
same,T/C,"T/C endpoint: median survival time, dose: 10.0 mg/kg/injection, schedule: Q01DX001 (ip), vehicle: saline",128 % of control
same,T/C,"T/C endpoint: median survival time, dose: 15.0 mg/kg/injection, schedule: Q01DX001 (ip), vehicle: saline",142 % of control
same,survivor count,"T/C endpoint: median survival time, dose: 16.0 mg/kg/injection, schedule: Q01DX009 (ip), vehicle: water",8 of 8
Cc1c2ccccc2c(CN(C)CC(=O)O)c2ccccc12,survivor count,"T/C endpoint: mean survival time, dose: 400.0 mg/kg/injection, schedule: Q04DX003 (ip), vehicle: saline with Tween-80",3 of 6
CCOc1c(C#N)c2c(N)ncnc2n1C1OC(CO)C(O)C1O (stereo unspecified),survivor count,"T/C endpoint: mean survival time, dose: 200.0 mg/kg/injection, schedule: Q01DX009 (ip), vehicle: distilled water + Tween-80",2 of 5
C[CH2][Pb]([CH2]C)([CH2]C)[O]C(=O)c1cc(-c2ccccc2)nc2ccccc12,survivor count,"T/C endpoint: mean survival time, dose: 12.5 mg/kg/injection, schedule: Q01DX009 (ip), vehicle: saline with Tween-80",1 of 6
same,survivor count,"T/C endpoint: mean survival time, dose: 25.0 mg/kg/injection, schedule: Q01DX009 (ip), vehicle: saline with Tween-80",1 of 6
Cc1cc2ccc(Cl)cc2[nH]1,survivor count,"T/C endpoint: mean survival time, dose: 400.0 mg/kg/injection, schedule: Q01DX001 (ip), vehicle: other",1 of 4
CN(Cc1ccc([N+](=O)[O-])cc1)N=Nc1ccc(C(=O)O)cc1,survivor count,"T/C endpoint: mean survival time, dose: 400.0 mg/kg/injection, schedule: Q01DX009 (ip), vehicle: other",1 of 3
